Laboratory results from the supplement of paper PMC3334620.
Over roughly 33,000 sequences, “E-score (-0.5 to 0.5)” has its median near -0.0014; the highest 2% begin near 0.25. This is one part of the list.

target: T1, Cad1 (UniProt P24813); assay: PBM E-score (8-mer binding enrichment) (E-score (-0.5 to 0.5)); higher = stronger / more preferred TF binding; conditions: protein concentration: 100 nM; construct: GST-full length
T1 sequence: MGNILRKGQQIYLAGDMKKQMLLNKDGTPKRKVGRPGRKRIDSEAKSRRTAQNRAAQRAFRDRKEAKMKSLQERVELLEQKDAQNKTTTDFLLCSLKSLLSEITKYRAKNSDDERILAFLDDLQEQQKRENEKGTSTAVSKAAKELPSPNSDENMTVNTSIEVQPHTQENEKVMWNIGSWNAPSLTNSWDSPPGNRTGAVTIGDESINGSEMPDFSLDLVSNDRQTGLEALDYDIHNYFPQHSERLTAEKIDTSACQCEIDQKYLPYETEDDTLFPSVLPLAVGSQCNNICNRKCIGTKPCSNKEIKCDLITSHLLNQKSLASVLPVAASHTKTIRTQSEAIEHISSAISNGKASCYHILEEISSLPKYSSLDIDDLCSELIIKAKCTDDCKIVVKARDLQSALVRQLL
Outline: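 Using PURExpress in vitro transcription/translation, GST-tagged yeast transcription factors were made in full-length or DNA-binding-domain form. These were applied at about 100-200 nM to double-stranded universal all-10-mer Agilent arrays, and bound protein was detected with fluorescent anti-GST. Scans were normalised with masliner before the Universal PBM Analysis Suite assigned E-scores to ungapped eight-base words pooled with their reverse complements.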

| Sequence | PBM E-score |
| --- | --- |
| ACAAATCA | 0.279 |
| GTGATAAC | 0.0507 |
| CGGTTCTA | 0.06 |
| ATGCCCAC | 0.0213 |
| CTCCAACC | -0.0598 |
| CACCGCCA | 0.0256 |
| CAATTGCC | 0.201 |
| GCGTCGCC | 0.0318 |
| AGTTCGAG | 0.179 |
| AAATTCAC | 0.0164 |
| AACGTCAC | 0.0773 |
| GGGCGCAA | 0.117 |
| GGATTATA | -0.015 |
| GATAAATA | 0.123 |
| GGCTAAAC | -0.00104 |
| TGGTTGAA | -0.0127 |
| ATGATCCC | -0.102 |
| CACCGAAG | 0.0732 |
| CGTAACAG | 0.0559 |
| ACGGGGAG | -0.251 |
| ATTCAAAG | -0.0586 |
| CGCGGGTC | 0.17 |

| Sequence | PBM E-score |
| --- | --- |
| ATCCTACA | -0.12 |
| CGCAAGGC | 0.0568 |
| CGGAGCAC | -0.0863 |
| ATCATGCG | -0.089 |
| AACTCCGC | -0.0222 |
| CAGACCTA | 0.0967 |
| CAACGACA | 0.064 |
| CCTTAGTA | 0.0752 |
| GGGTAAAC | 0.0753 |
| GAACAGTA | 0.114 |
| ACCAGGGT | -0.266 |
| CAGAATGG | -0.00601 |
| ACCTTGAG | 0.0462 |
| CCGGCCCC | -0.302 |
| GTTATACA | 0.171 |
| GTGAATCA | -0.00155 |
| AACTGTAC | -0.0792 |
| AAATGTGT | 0.214 |
| AGACGTCT | -0.084 |
| AGCGAATA | 0.0477 |
| TCAATGCA | -0.0451 |
| CTGATGTA | 0.115 |

| Sequence | PBM E-score |
| --- | --- |
| CGCACTGC | 0.0981 |
| AAATTTAC | 0.233 |
| GAAAAACC | 0.0979 |
| CTCGGTGC | 0.113 |
| AGCTCAGC | 0.00713 |
| AACCATCG | 0.109 |
| ACGCAGGG | -0.155 |
| AAGCGGGG | -0.0862 |
| CGTTTAAG | 0.0242 |
| TACGCCGA | -0.118 |
| CACAGCTG | -0.0457 |
| CTCACGGC | -0.118 |
| ATTGTACC | 0.163 |
| GGTACCGA | -0.222 |
| CAGTTAGG | 0.0986 |
| AGTCTTAG | -0.192 |
| AAATAGGG | 0.143 |
| GGCACTTA | 0.00656 |
| AACACGCG | 0.131 |
| AGCGTAAA | 0.0495 |
| ATGCTAAA | 0.0771 |
| CAAAAATC | 0.0761 |

Reformatted tab-delimited: part of the list above
Sequence	PBM E-score
GGTACCGA	-0.222
CAGTTAGG	0.0986
AGTCTTAG	-0.192
AAATAGGG	0.143

2 entries drawn at random from the list so far:

| Sequence | PBM E-score |
| --- | --- |
| CAGTTAGG | 0.0986 |
| AGTCTTAG | -0.192 |

(list continues)

| Sequence | PBM E-score |
| --- | --- |
| CCACAGCA | 0.109 |
| CATCTTGC | 0.0589 |
| ACCGCAAT | 0.125 |
| GGAGCACA | -0.0636 |
| AGCGCTCC | 0.114 |
| ATGGTGTA | 0.0489 |
| GGTGCGTA | -0.0216 |
| AAAATTTG | 0.196 |
| CATATGCC | 0.121 |
| GCGGATCA | 0.182 |
| TCTCACCA | 0.0644 |
| AGATAACT | 0.0425 |
| ATTTGCCA | -0.0587 |
| CGACAGGC | -0.0127 |
| ACGGGTAG | -0.138 |
| ACCTCCAG | -0.128 |
| GTAATTCA | 0.214 |
| GCCATGAC | -0.00687 |
| AAAAGCGT | -0.0001 |
| AAGCTATC | 0.136 |
| ATGTACGA | -0.0159 |
| CAGGAACG | 0.106 |

| Sequence | PBM E-score |
| --- | --- |
| ATCAGTGC | 0.0108 |
| CTGAGAGA | -0.0253 |
| ATGAAGTG | 0.0478 |
| GTAACCGA | 0.172 |
| AAACCATC | 0.122 |
| AACCGACG | 0.186 |
| CCCCAATA | 0.00769 |
| GAGTTGGC | -0.105 |
| CCGGAAGA | 0.00753 |
| AGTAAGGC | 0.0168 |
| CATACGCC | -0.151 |
| ACCACGCA | 0.0237 |
| AGTGACTC | -0.0274 |
| AGTTCTAA | 0.071 |
| AGGACGTG | 0.0498 |
| GTTCTCGA | 0.165 |
| AATTAATT | 0.285 |
| CTAGTGTC | 0.0979 |
| CTGGATAA | -0.0617 |
| ACTTATGA | 0.0416 |
| GCTTTTTA | -0.0089 |
